In all, about 210,000 compounds went through this assay and about 5,900 (2.8%) were called active. Another 5% or so got no clear call; they are omitted. Calls come from the whole dose curve; as a rule, active = well fitted activation curve with a large enough effect; inconclusive = small, poorly fitted or top-dose-only effect; inactive = no such curve, though single readings can be large or run the other way. Only a part is listed here, and it is no random draw. Entries without a call were filed so in the source.
Potency is the fitted concentration of half-maximal effect.

This experiment in a line: qHTS Assay for Enhancers of SMN2 Splice Variant Expression. For activity change, positive = activation: % of control where 0% means no effect. Note: nearly all actives have a fitted effect of over 55% in size. The following applies: HEK293 SMN2-luciferase splicing reporter, luminescence, 30-36 h; activity change, positive = activation: at 46.1 µM (top of the series) unless noted. A digest of the protocol:
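HEK293 cells carry an SMN2 […]–luciferase reporter in which exon 7 inclusion puts luciferase in frame. Cells were plated 10-12 h before compound addition, then incubated 30-36 h at 37C. ONE-Glo luminescence was read; sodium butyrate at 4.5 mM final served as control.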
(In general: In qHTS, concentration-response curves come from the screen itself.)
As to `N#Cc1cc(-c2ccccc2)nnc1Oc1ccccc1`, the “activity change, positive = activation” value was inactive: -49.1%.
With `O=C(O)c1ccc(Cn2cc(Cl)cn2)cc1`, the activity change, positive = activation worked out at 31.9%.
For the molecule `C/C(=N\NC(=O)c1cc(C)[nH]n1)c1cccs1`, the Potency was active: 11.2 µM.
For the molecule `COc1ccc(C(C)=O)cc1CSc1nnc(Nc2ccc(C)cc2)s1`, the “activity change, positive = activation” value was inactive: -49.2%.
Same read-out and setting: the same measure for `CCOc1cc(S(=O)(=O)Nc2ccc(Cl)cn2)ccc1F`: 38.7%.
On to `O=C(CN1C(=O)CCC1=O)Nc1nc(-c2nc3ccccc3s2)cs1`, for which the Potency was active: 12.6 µM.
Regarding `COc1ccc(S(=O)(=O)NC2CC3CCC2C3)cc1Cl` (centres undefined), the activity change, positive = activation was 39.2%.
In the case of `O=C(NCCOCc1ccccc1)C(c1ccccc1)c1ccccc1`, the “activity change, positive = activation” value is inactive: -0.474%.
Still for that read-out and setting: the figure for `Cc1ccc(NC(=O)COc2cccnc2[N+](=O)[O-])cc1S(=O)(=O)N1CCCCC1` is -59.5%; for `COc1cc(/C=C2\SC(=Nc3ccc(F)cc3)N(c3ccc(F)cc3)C2=O)ccc1OCC(=O)O` it is inactive: -12.4%.
Still for that read-out and setting: the same measure for `O=C(NCc1cn2ccccc2n1)c1ccc(Br)o1`: 22%.
`O=C(O)c1cccc(OCc2ccccc2Cl)c1`: the activity change, positive = activation turned out to be 23.1%.
Same read-out and setting: the figure for `Cc1c(Cl)cccc1NC(=O)COC(=O)c1c2c(nc3ccccc13)CCN(Cc1ccccc1)C2` is -40.2%; for `O=C1CCCc2oc3c(c21)CCCC3` it is inactive: -8.53%; for `Cc1cccc(C)c1NC(=O)CCCSc1nnc(-c2ccc(Cl)cc2)n1-c1ccccc1` it is inactive: -64.9%.
In the case of `O=C(CCSc1ccccc1)N1CCN(c2ccccc2F)CC1`, the Potency was active: 11.2 µM.
As to `COc1cc(NC(=O)COC(=O)CNC(=O)c2ccc(C)s2)cc(OC)c1`, the activity change, positive = activation worked out at 41.3%.
On the same count and under the same terms, the figure for `COc1ccc(C)cc1N(CC(=O)O)S(=O)(=O)c1ccc(C)cc1` is 59.2%; for `O=C(N/N=C/c1ccccc1OC(=O)c1ccc2c(c1)OCO2)c1ccccc1` it is -90%; for `CCCC12C(=O)C(C)(C(c3ccccc3)=C1c1ccccc1)C1C(=O)N(c3ccc(C)cc3)C(=O)C12` (centres undefined) it is -90.5%.
Still for that read-out and setting: the same measure for `Nn1c(SCC(=O)N2CCOCC2)nnc1-c1ccccc1Cl`: 45%; for `CN1CCN(C(=O)c2ccccc2-c2nc(-c3ccc(Cl)cc3)no2)CC1`: 43.4%.
Same read-out and setting: the figure for `O=C(Nc1ccccc1N1CCOCC1)c1cc2c(s1)CCCCC2` is 55.9%.
For `Fc1ccc(-c2nnc3ccc(N4CCc5ccccc5C4)nn23)cc1`, the “activity change, positive = activation” value was inactive: -36.5%.
Take `O=C(N/N=C/c1ccccn1)c1ccccc1`: the Potency was active: 11.2 µM.
For the molecule `COC(=O)c1ccc(C(=O)NC(=S)Nc2nc3c(s2)CC(C)CC3)cc1` (centres undefined), the Potency was active: 15.8 µM.
For `Cc1ccc(C(=O)COC(=O)c2ccc(O)cc2)cc1`, the activity change, positive = activation turned out to be 129%.
The same measure, in the same setting: the same measure for `Cc1cc(C)c(C(=O)/C=C/c2ccc(C(C)C)cc2)c(=O)[nH]1`: inactive: -70.2%; for `COC(=O)c1cc2ccccc2oc1=O`: 30.6%.
On the same count and under the same terms, the figure for `CCC(=O)c1ccc(OCC(=O)NCC2(N3CCCCC3)CCCCC2)cc1` is 173%; for `CCOC(=O)C1CCN(c2c(C(=O)c3ccccc3)cnc3ccc(CC)cc23)CC1` it is 51.7%; for `CCN(CC)c1ccc(CNC23CN4CN(CN(C4)C2)C3)cc1` it is -37.5%.
As to `c1ccc2c(Oc3ccc4c(c3)OCO4)nncc2c1`, the Potency is active: 10 µM.
In the case of `Brc1ccc(/C=N/Nc2ccccn2)cc1`, the activity change, positive = activation was 80%.
As to `C/C(=N\NC(=O)CC#N)c1cc2ccccc2oc1=O`, the activity change, positive = activation is -32.5%.
The same measure, in the same setting: the figure for `CCc1ccc(CNC(=O)Cn2nc(-c3ccccc3)ccc2=O)cc1` is inactive: -46.3%.
On the same count and under the same terms, the same measure for `COc1ccc(OC)c(C(=O)c2coc3ccc(O)c(CN4CCOCC4)c23)c1`: 24.3%; for `Cc1ccc(SC(C)C(=O)Nc2ccccc2C(=O)N2CCOCC2)cc1` (centres undefined): 33.6%.
For the molecule `CCCCn1c(SCC(=O)Nc2nnc(C(C)C)s2)nc2c1c(=O)n(C)c(=O)n2C`, the activity change, positive = activation is -68.1%.
`CN=c1scc(-c2ccccc2Br)n1/N=C/c1ccc[nH]1`: the activity change, positive = activation is -63.2%.
Take `Clc1ccccc1OCc1nc(-c2ccccn2)no1`: the Potency is active: 4.47 µM.
Regarding `CCOc1c(Br)cc(C(N)=O)cc1OCc1ccccc1`, the activity change, positive = activation is -16%.
Still for that read-out and setting: the same measure for `CC(C)(C)NC(=O)c1cccc2c1OC(C)(C)C2`: 1.36%; for `Cc1ccc(S(=O)(=O)Nc2ccc(C(=O)Nc3ccncc3)cc2)cc1`: 31.8%; for `Cc1cc(C)c(NC(=O)c2ccc(S(=O)(=O)N(C)C)cc2)c(C)n1`: 54%.
The same measure, in the same setting: the same measure for `COc1ccc(CCNC(=O)CCCn2nc(C)c([N+](=O)[O-])c2C)cc1OC`: 51.5%; for `Cc1ccc(C2=[N+]([O-])C3(CCCCC3=O)N(O)C2(C)C)cc1` (centres undefined): 27.1%.
On to `O=C1c2ccccc2S(=O)(=O)N1CC1CC(c2ccc(Cl)cc2)=NO1` (centres undefined), for which the Potency is active: 15.8 µM.
As for `COC(=O)c1ccc(C)c(NC(=O)c2c(-c3ccccc3)noc2C)c1`, the activity change, positive = activation is 24.7%.
For `CCCS(=O)(=O)c1ncc(Cl)c(C(=O)N(Cc2ccccc2)Cc2ccco2)n1`, the “activity change, positive = activation” value was inactive: -63.7%.
Same read-out and setting: the same measure for `CN(CC(=O)Nc1ccccc1Br)c1ncnc2sccc12`: -65.7%.
Take `Cn1c(=O)c2c(SCc3ccccn3)nc(CC(C)(C)C)nc2n(C)c1=O`: the activity change, positive = activation worked out at 50.5%.
On the same count and under the same terms, the figure for `O=C(Nc1ccc2c(c1)oc1ccccc12)c1ccncc1` is inactive: -23%; for `COC(=O)c1ccccc1NC(=O)CN1C(=O)c2ccccc2S1(=O)=O` it is 63.6%.

The record behind these values is PubChem BioAssay AID1458 (National Center for Advancing Translational Sciences (NCATS), 2008).
